The test relates to L1210 leukemia ip in BDF1 mice, survival T/C. Nature of the test: NCI In Vivo Anticancer Drug Screen. Data for tumor model L1210 Leukemia (intraperitoneal) in B6D2F1 (BDF1) mice. The settings on record: T/C endpoint: mean survival time, higher T/C = longer survival.
The mark [1] stands for this setting: dose: 40.0 mg/kg/injection, schedule: Q01DX001 (ip), vehicle: saline.
Where [2] appears, read: dose: 200.0 mg/kg/injection, schedule: Q01DX009 (ip), vehicle: Klucel (hydroxypropylcellulose) (HPC).
Where [3] appears, read: dose: 400.0 mg/kg/injection, schedule: Q01DX009 (ip), vehicle: Klucel (hydroxypropylcellulose) (HPC).
The mark [4] stands for this setting: dose: 100.0 mg/kg/injection, schedule: Q04DX002 (ip), vehicle: saline with Tween-80.
Setting [5] is: dose: 400.0 mg/kg/injection, schedule: Q04DX003 (ip), vehicle: saline.
Where [6] appears, read: dose: 10.0 mg/kg/injection, schedule: Q01DX001 (ip), vehicle: saline.

Each structure is given as a SMILES string. The list shows only some results of the screen, not a fair sample: it is rich in T/C values a quarter to a half above the control, in often repeated tests (any T/C) and in doses without a T/C. Other doses and runs of a compound stand elsewhere. T/C gives the treated animals as a percentage of the vehicle group. Some entries give survivors of the animals treated and no T/C: the source files T/C as zero there, which appears to mark a toxic dose or a test without result, not a measured value. Some survivor counts are full or nearly so, which does not show that the dose was tolerated: survival well below the control is almost never listed, so the zero probably covers shortened survival too. Survivors were counted at the toxicity check, usually on the fifth day, unless a day is given; later deaths do not show. Schedules are NCI's codes, read here as Q, the interval in days (D) or hours (H), X, the number of doses. Some schedule codes hold Z or #, which are not explained here. Some doses were run more than once; the values are given in rising order. For survival time, this PubChem deposit counts one and a half times the control or more as active, and values a quarter to a half above the control carry no call in these data; other NCI protocols may use other cut-offs. Signs of the kind (2×) count equal records among those shown.

Consider `c1ccc2c(c1)ccc1c[n+]3c4ccccc4ccc3n12`, for which the survivor count reads like this: (dose: 10.0 mg/kg/injection, schedule: Q04DX003 (ip), vehicle: saline) 6 of 6; (dose: 20.0 mg/kg/injection, schedule: Q04DX003 (ip), vehicle: saline) 6 of 6; under setting [1], 2 of 6; (dose: 75.0 mg/kg/injection, schedule: Q01DX001 (ip), vehicle: saline) 0 of 6; (dose: 150.0 mg/kg/injection, schedule: Q01DX001 (ip), vehicle: saline) 0 of 6; (dose: 300.0 mg/kg/injection, schedule: Q01DX001 (ip), vehicle: saline) 0 of 6.

Turning to `CC(C)=CCC(/C=N/N=C(N)N)C(C)C` (stereo not drawn), the survivor count by setting is: (dose: 15.0 mg/kg/injection, schedule: Q01DX Z (ip), vehicle: saline) 6 of 6; (dose: 30.0 mg/kg/injection, schedule: Q01DX Z (ip), vehicle: saline) 5 of 6; (dose: 60.0 mg/kg/injection, schedule: Q01DX Z (ip), vehicle: saline) 0 of 6; (dose: 120.0 mg/kg/injection, schedule: Q01DX Z (ip), vehicle: saline) 0 of 6; (dose: 120.0 mg/kg/injection, schedule: Q01DX Z (oral), vehicle: saline) 3 of 6.

With `N#Cc1nc2ccc(Cl)cc2nc1C#N`, the survivor count was 6 of 6 under setting [2] and 4 of 6 under setting [3].

Consider `Nc1ccc(C(=O)O)cc1S(=O)(=O)O`, for which the survivor count was 1 of 3 (dose: 200.0 mg/kg/injection, schedule: Q01DX001 (ip), vehicle: Klucel (hydroxypropylcellulose) (HPC)) and 0 of 3 (dose: 400.0 mg/kg/injection, schedule: Q01DX001 (ip), vehicle: Klucel (hydroxypropylcellulose) (HPC)).

For the molecule `CC(=O)[O][Sn]([CH2]C1CCCCC1)([CH2]C1CCCCC1)[CH2]C1CCCCC1`, the survivor count is listed as 1 of 3 (dose: 25.0 mg/kg/injection, schedule: Q04DX002 (ip), vehicle: saline with Tween-80); 0 of 3 under setting [4]; 0 of 3 (dose: 200.0 mg/kg/injection, schedule: Q04DX002 (ip), vehicle: saline with Tween-80); 0 of 3 (dose: 400.0 mg/kg/injection, schedule: Q04DX002 (ip), vehicle: saline with Tween-80).

For the molecule `CCC(COC(=O)c1ccc(N)cc1)NC(CC(C)C)CC(C)C` (stereo not drawn), where the note is “dose: 150.0 mg/kg/injection, schedule: Q01DX001 (ip), vehicle: carboxymethylcellulose (CMC)”, the survivor count is reported as 5 of 6.

As to `C=C1CC[N+]2(CC(C)C)CCCC12` (stereo not drawn), the survivor count is listed as 4 of 6 (dose: 100.0 mg/kg/injection, schedule: Q04DX003 (ip), vehicle: saline); 0 of 6 (dose: 200.0 mg/kg/injection, schedule: Q04DX003 (ip), vehicle: saline); 0 of 6 under setting [5].

Regarding `CS(=O)(=O)OCCN(CCOS(C)(=O)=O)c1ccc(N=O)c(Cl)c1`, the T/C is, setting by setting: (dose: 0.33 mg/kg/injection, schedule: Q01DX001 (ip), vehicle: saline) 126 % of control; (dose: 0.38 mg/kg/injection, schedule: Q01DX015 (ip), vehicle: saline) 131 % of control; (dose: 0.5 mg/kg/injection, schedule: Q01DX001 (ip), vehicle: saline) 138 % of control; (dose: 0.5 mg/kg/injection, schedule: Q01DX015 (ip), vehicle: saline) 128 % of control; (dose: 0.75 mg/kg/injection, schedule: Q01DX001 (ip), vehicle: saline) 132 % of control; (dose: 1.0 mg/kg/injection, schedule: Q01DX001 (ip), vehicle: saline) 127 % of control. Besides, the T/C is, setting by setting: (dose: 2.0 mg/kg/injection, schedule: Q01DX001 (ip), vehicle: saline) 127 % of control; under setting [6], 127 % of control. Also, the survivor count is 6 of 6 (dose: 4.0 mg/kg/injection, schedule: Q01DX015 (ip), vehicle: saline); 6 of 6 (dose: 4.5 mg/kg/injection, schedule: Q01DX001 (ip), vehicle: saline); 0 of 6 and 1 of 6 (dose: 6.7 mg/kg/injection, schedule: Q01DX001 (ip), vehicle: saline); 0 of 4 (dose: 8.0 mg/kg/injection, schedule: Q01DX001 (ip), vehicle: saline); 0 of 6 under setting [6]; 0 of 6 and 1 of 6 (dose: 15.0 mg/kg/injection, schedule: Q01DX001 (ip), vehicle: saline). Also, the survivor count is on record as 0 of 4 (dose: 20.0 mg/kg/injection, schedule: Q01DX001 (ip), vehicle: saline); 0 of 4 under setting [1]; 0 of 6 (dose: 50.0 mg/kg/injection, schedule: Q01DX001 (ip), vehicle: saline); 0 of 4 (dose: 80.0 mg/kg/injection, schedule: Q01DX001 (ip), vehicle: saline); 0 of 6 (dose: 100.0 mg/kg/injection, schedule: Q01DX001 (ip), vehicle: saline); 0 of 6 (dose: 200.0 mg/kg/injection, schedule: Q01DX001 (ip), vehicle: saline). Further, the survivor count (dose: 400.0 mg/kg/injection, schedule: Q01DX001 (ip), vehicle: saline) is on record as 0 of 6.

Consider `Clc1ccc(/C=N\N=C\c2ccc(Cl)c(Cl)c2)cc1Cl`, for which the survivor count (dose: 100.0 mg/kg/injection, schedule: Q04DX003 (ip), vehicle: saline with Tween-80) is given as 6 of 6 and the survivor count (dose: 200.0 mg/kg/injection, schedule: Q01DX009 (ip), vehicle: saline with Tween-80) is recorded as 6 of 6.

For the molecule `C[N+](C)(CC(=O)Nc1cc(C(F)(F)F)cc(C(F)(F)F)c1)CC(=O)Nc1ccc(Cl)c(C(F)(F)F)c1`, the survivor count by setting is: (dose: 50.0 mg/kg/injection, schedule: Q04DX002 (ip), vehicle: saline with Tween-80) 1 of 3; under setting [4], 0 of 3.

`CCOC(=O)C(C(=O)OCC)c1nc(=O)[nH]c(=O)[nH]1`: for the setting “dose: 200.0 mg/kg/injection, schedule: Q01DX Z (ip), vehicle: methylcellulose (MC)”, the survivor count was 1 of 6.

Take `NC(CSCc1ccc(N(CCCl)CCCl)cc1)C(=O)O` (stereo not drawn): the T/C runs as follows: (dose: 5.0 mg/kg/injection, schedule: Q01DX Z (ip), vehicle: carboxymethylcellulose (CMC)) 134 % of control; (dose: 6.0 mg/kg/injection, schedule: Q01DX Z (ip), vehicle: other) 139 % of control; (dose: 9.0 mg/kg/injection, schedule: Q01DX Z (ip), vehicle: other) 125 and 147 % of control (2×); (dose: 10.0 mg/kg/injection, schedule: Q01DX Z (ip), vehicle: carboxymethylcellulose (CMC)) 144 % of control; (dose: 20.0 mg/kg/injection, schedule: Q01DX Z (ip), vehicle: other) 125 and 135 % of control; (dose: 30.0 mg/kg/injection, schedule: Q01DX Z (ip), vehicle: other) 127 % of control. The survivor count by setting is: (dose: 20.0 mg/kg/injection, schedule: Q01DX001 (ip), vehicle: carboxymethylcellulose (CMC)) 2 of 6; (dose: 80.0 mg/kg/injection, schedule: Q01DX Z (ip), vehicle: carboxymethylcellulose (CMC)) 1 of 6.

Consider `C=CCN1CCC(C(=O)OC)(c2ccccc2)CC1`, for which the survivor count under setting [5] is 0 of 6.

With `Cc1ccccc1-n1c(C)nc2ccccc2c1=O`, the survivor count under setting [3] is 2 of 6.

Regarding `CCCCCCCCCCCCCCC(F)C(=O)O` (stereo not drawn), the survivor count by setting is: under setting [2], 6 of 6; (dose: 400.0 mg/kg/injection, schedule: Q04DX003 (ip), vehicle: Klucel (hydroxypropylcellulose) (HPC)) 3 of 6.

Take `C=C1CC(OC(C)=O)C2C(C)C(=O)OC2C2C1CC1OC12C` (stereo not drawn): the survivor count (dose: 400.0 mg/kg/injection, schedule: Q04DX002 (ip), vehicle: saline) is recorded as 2 of 3.

Consider `Cc1cc(Cl)ccc1NC(=O)COc1ccc(Cl)cc1Cl`, for which the survivor count (dose: 400.0 mg/kg/injection, schedule: Q04DX003 (ip), vehicle: saline with Tween-80) is on record as 6 of 6.

Values taken from PubChem BioAssay AID248 (DTP/NCI, 2004).
